Among the data in PMC3470543, “Effects of the Missense Mutations in Canine BRCA2 on BRC Repeat 3 Functions and Comparative Analyses between Canine and Human BRC Repeat 3” (PLoS ONE, 2012) are binding values, retold here.

The chains behind the UniProt entries cited, without tags or fusion partners.
UniProt Q8MKI8: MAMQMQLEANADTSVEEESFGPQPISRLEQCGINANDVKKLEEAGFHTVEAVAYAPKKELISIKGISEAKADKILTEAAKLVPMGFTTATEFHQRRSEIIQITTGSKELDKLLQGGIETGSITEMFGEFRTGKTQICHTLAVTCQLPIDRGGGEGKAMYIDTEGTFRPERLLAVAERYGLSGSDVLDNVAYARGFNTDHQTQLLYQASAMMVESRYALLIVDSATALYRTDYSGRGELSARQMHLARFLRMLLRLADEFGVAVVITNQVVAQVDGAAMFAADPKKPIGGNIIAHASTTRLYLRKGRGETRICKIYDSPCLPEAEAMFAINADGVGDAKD

Residue numbers refer to the chain shown, from its start. No constants are given. Whether binding was seen depends on the method and setting. Some binding calls cover weakened binding; strength is not graded here. For some assays here: Tags and fused reporters may be left off the sequences shown.

The target in experiment [1] is T1, Gal4-DBD-fused K1435R mutant canine BRC3 (canine) (UniProt Q8MKI9).
T1 sequence: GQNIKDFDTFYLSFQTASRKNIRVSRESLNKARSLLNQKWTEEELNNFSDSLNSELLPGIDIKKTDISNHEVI
The experiment in a line: two-hybrid; mammalian two-hybrid in HeLa cells: Gal4-DBD-fused BRC constructs and VP16 transactivation domain-fused RAD51; luciferase (pGluc, normalised to pRL-TK) 48 h after transfection.

Experiment [2] deals with T2, Gal4-DBD-fused wild-type canine BRC3 (canine) (UniProt Q8MKI9).
T2 sequence: T1 sequence with R26K
The description is as above.

Experiment [3] deals with VP16 transactivation domain-fused canine RAD51 (canine) (UniProt Q8MKI8). The experiment can be described thus: two-hybrid; modified mammalian two-hybrid (binding interference) in HeLa cells: VP16- and DBD-fused RAD51 with EGFP-fused BRC3 interference constructs.

“VP16 transactivation domain-fused human RAD51 (from UniProt Q06609-1 1-339)”: the binding entry in experiment [1] and in experiment [2] was “binds” in each case.

As for “VP16 transactivation domain-fused canine RAD51 (from UniProt Q8MKI8 1-339)”, the binding result in experiment [1], in experiment [2] and in experiment [3] was “binds” each time.
